Data from publication PMC4583457.

Columns and labels:
[1] = molecular target: T1, myelin protein zero (P0), endogenous in adult mouse sciatic nerve (mouse (endogenous in sciatic nerve)) (UniProt P27573); experiment: co-IP; as a2, but from sciatic nerve lysates of HDAC1/2 dKO mice at 8 wk post-tamoxifen (P0 levels reduced)
T1 sequence: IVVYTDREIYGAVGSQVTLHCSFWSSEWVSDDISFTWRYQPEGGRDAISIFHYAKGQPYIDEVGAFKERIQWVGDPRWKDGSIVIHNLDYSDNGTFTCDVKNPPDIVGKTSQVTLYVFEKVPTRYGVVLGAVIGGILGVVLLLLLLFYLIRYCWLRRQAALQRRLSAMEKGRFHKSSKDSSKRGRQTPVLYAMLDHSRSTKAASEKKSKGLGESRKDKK

[2] = molecular target: T1, myelin protein zero (P0), endogenous in adult mouse sciatic nerve (mouse (endogenous in sciatic nerve)); experiment: co-IP; IP with 2 ug chicken anti-P0 antibody on PrecipHen beads from adult control littermate mouse sciatic nerve lysates (8 wk post-tamoxifen); blot with pan-NFasc antibody; chicken IgY as negative control

## NFasc155, endogenous in adult mouse sciatic nerve
[1]
  binding: binds weakly
[2]
  binding: binds

No constants are given. Whether binding was seen depends on the method and setting. Binding seen in cells or lysates may run through a third protein. Binding calls can cover weak binding; strength is not graded here.
